In the supplement of paper PMC12889115:
The list shows a part of the results. Values are raw readings; no control value is given beside them.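 First-pass screen: polymyxin B was added at a level that permeabilizes the Salmonella outer membrane while sparing the inner membrane. DMSO wells, with and without polymyxin B, defined maximum growth. Because plates differed from one another, each plate's data were ranked separately and the compounds with the lowest OD600 were carried forward as hits.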

Tested on: Salmonella enterica serovar Typhimurium SL1344
Test: bacterial growth OD600 after 18 h with compound and polymyxin B; higher = more bacterial growth (less inhibition)
Conditions: 50 µM, Mueller-Hinton broth

Row | SMILES | bacterial growth OD600 (polymyxin B 0.75 µg/mL) | bacterial growth OD600 (polymyxin B 1 µg/mL)
1 | Cc1cnc(SCCN2CCOCC2)nc1C1CCCN(C(=O)CCC2CCCCC2)C1 (centres undefined) | 0.002 | –
2 | C1CCN(C2CCN(c3nc4nonc4nc3N3CCOCC3)CC2)C1 | 0.725 | –
3 | COc1ccccc1OCC(=O)NCC1CCCN(C/C=C/c2ccccc2)C1 (centres undefined) | – | 0.951
4 | O=C(c1n[nH]c(=O)c2ccccc12)N1CCC2(CCCN(Cc3cccc(F)c3F)C2)C1 (centres undefined) | – | 0.754
5 | CCOc1ccccc1CN1CCOc2ccc(CN3CCC(Oc4cccnc4)CC3)cc2C1 | 0.728 | –
6 | O=C(CC(c1ccccc1)c1ccccc1F)N1CCN(C(=O)c2ccco2)CC1 (centres undefined) | 0.638 | –
7 | CN(CCc1ccccc1)Cc1cnc(S(C)(=O)=O)n1Cc1ccccc1F | – | 0.951
8 | CCCCNC(=O)C1CCCN(C2CCN(C3Cc4ccccc4C3)CC2)C1 (centres undefined) | – | 0.827
9 | Cc1ncsc1CCCNC(=O)C1CCC(=O)N(CCc2cccc(F)c2)C1 (centres undefined) | – | 0.935
10 | COC(=O)[C@@H]1CCCN1C(=O)Cc1ccc(N2CCC(NCCc3cnccn3)CC2)cc1 | 0.743 | –
11 | O=C1CCC(CCC(=O)N2CCC(c3ccccc3Cl)C2)(Cc2ccccc2)N1 (centres undefined) | 0.993 | –
12 | Cc1nccn1CCCNC(=O)C1(N2CCCCC2)Cc2ccccc2C1 | 0.858 | –
13 | CCn1nc(C)cc1C(=O)N1CCc2c(cnc(C)c2CNS(=O)(=O)c2cccs2)C1 | 0.847 | –
14 | COc1cccc([C@@H](C)NCc2c(C(=O)N3CCOCC3)nc3c(C)cccn23)c1 | – | 1.09
15 | CCC(O)CN1C(=O)CCC1CCNCCOc1ccc(F)cc1 (centres undefined) | 0.97 | –
16 | C[C@@H]1CN(C(=O)c2nc3sccn3c2CN2CCN(CC3CC3)CC2)C[C@H](C)O1 | – | 0.89
17 | COc1ccc2c(c1)OC(C)CN(Cc1ccc(SC)cc1)C2 (centres undefined) | 0.093 | –
18 | COC(=O)[C@@H]1CCCN1C(=O)Cc1ccc(N2CCC(N[C@H]3CCCCNC3=O)CC2)cc1 | 0.941 | –
19 | Cc1csc(SCC(=O)N2CCCC(N3CCN(c4ccccc4C)CC3)C2)n1 (centres undefined) | – | 0.844
20 | CN(Cc1cccnc1)C(=O)CC(c1cccc(O)c1)c1ccccc1Cl (centres undefined) | – | 0.803
21 | CC(C)NC(=O)N1CCC2(CCCN(CC3CCCCC3)C2=O)C1 (centres undefined) | – | 0.875
22 | COCc1ccc(CN2CCCC(CNC(=O)COc3ccccc3OC)C2)o1 (centres undefined) | 0.802 | –
23 | Cc1nc(N2CCCC(C(=O)N(C)CC(O)c3ccccc3)C2)nc2cc(S(C)(=O)=O)ccc12 (centres undefined) | 0.851 | –
24 | COc1ccc(OC2CCN(C3CCCC3)CC2)c(C(=O)N2CCCC(O)C2)c1 (centres undefined) | – | 1.31
25 | COCc1noc(-c2ccc(N(Cc3cnn(C)c3)C(C)C)nc2)n1 | – | 0.987
26 | Cc1ccc(CN2CCN(Cc3cccn3-c3ccc(Cl)cn3)CC2CCO)cc1 (centres undefined) | – | 0.613
27 | Cc1ccccc1NC(=O)Nc1ccnn1C1CCN(C(=O)c2ccoc2C)CC1 | – | 0.858
28 | CN(Cc1cnn(C)c1)C(=O)CC1(c2ccccc2)CC(=O)N(CCCOc2cccnc2)C1=O (centres undefined) | 0.846 | –
29 | CC(=O)NCCC(=O)N1CCCC(CCc2ccccc2C(F)(F)F)C1 (centres undefined) | – | 0.988

From entry 15 to 16, copied from above:
Row | SMILES | bacterial growth OD600 (polymyxin B 0.75 µg/mL) | bacterial growth OD600 (polymyxin B 1 µg/mL)
15 | CCC(O)CN1C(=O)CCC1CCNCCOc1ccc(F)cc1 (centres undefined) | 0.97 | –
16 | C[C@@H]1CN(C(=O)c2nc3sccn3c2CN2CCN(CC3CC3)CC2)C[C@H](C)O1 | – | 0.89
